Laboratory results reported in paper PMC3387162.
Results are given in words; binding and its absence hold for the method and conditions named. Binding seen in cells or lysates may run through a third protein. Some binding calls cover weakened binding; strength is not graded here. Sequences can lack the tags named with a protein.

Molecular target: T1, Venus-GABAA receptor α1 subunit fusion (inhibitory synapse affinity tag), P62812
T1 chain: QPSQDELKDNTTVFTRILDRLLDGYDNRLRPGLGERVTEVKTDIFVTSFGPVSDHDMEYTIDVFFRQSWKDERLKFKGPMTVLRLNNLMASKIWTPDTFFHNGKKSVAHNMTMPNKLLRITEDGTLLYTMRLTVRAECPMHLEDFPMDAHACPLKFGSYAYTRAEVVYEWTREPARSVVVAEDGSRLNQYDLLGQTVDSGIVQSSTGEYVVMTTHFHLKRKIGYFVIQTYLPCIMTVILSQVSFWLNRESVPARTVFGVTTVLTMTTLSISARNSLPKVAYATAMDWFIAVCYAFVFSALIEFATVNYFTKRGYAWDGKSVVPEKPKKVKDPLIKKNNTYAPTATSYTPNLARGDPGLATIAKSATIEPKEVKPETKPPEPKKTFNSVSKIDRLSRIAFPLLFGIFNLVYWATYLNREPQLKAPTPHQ
Test: co-IP; crude synaptosome fraction of adult mouse cortex (Otx1-VGABAARα1 or Otx1-eGFP control) solubilised in 0.1% Triton X-100, gel filtration on Sephacryl S1000, high molecular weight fractions 6-10 pooled; immunopurified with anti-eGFP antibody on Dynabeads Protein G; immunoblot
Conditions: remark: other sources report otherwise

B1: Gephyrin, Q8BUV3 1-769 (protein)
chain: MATEGMILTNHDHQIRVGVLTVSDSCFRNLAEDRSGINLKDLVQDPSLLGGTISAYKIVPDEIEEIKETLIDWCDEKELNLILTTGGTGFAPRDVTPEATKEVIEREAPGMALAMLMGSLNVTPLGMLSRPVCGIRGKTLIINLPGSKKGSQECFQFILPALPHAIDLLRDAIVKVKEVHDELEDLPSPPPPLSPPPTTSPHKQTEDKGVQCEEEEEEKKDSGVASTEDSSSSHITAAALAAKIPDSIISRGVQVLPRDTASLSTTPSESPRAQATSRLSTASCPTPKQIRRPDESKGVASRVGSLKARLPSCSSTYSVSEVQSRCSSKENILRASHSAVDITKVARRHRMSPFPLTSMDKAFITVLEMTPVLGTEIINYRDGMGRVLAQDVYAKDNLPPFPASVKDGYAVRAADGPGDRFIIGESQAGEQPTQTVMPGQVMRVTTGAPIPCGADAVVQVEDTELIRESDDGTEELEVRILVQARPGQDIRPIGHDIKRGECVLAKGTHMGPSEIGLLATVGVTEVEVNKFPVVAVMSTGNELLNPEDDLLPGKIRDSNRSTLLATIQEHGYPTINLGIVGDNPDDLLNALNEGISRADVIITSGGVSMGEKDYLKQVLDIDLHAQIHFGRVFMKPGLPTTFATLDIDGVRKIIFALPGNPVSAVVTCNLFVVPALRKMQGILDPRPTIIKARLSCDVKLDPRPEYHRCILTWHHQEPLPWAQSTGNQMSSRLMSMRSANGLLMLPPKTEQYVELHKGEVVDVMVIGRL
binding: binds
